In article PMC7461561:
No constants are given. Whether binding was seen depends on the method and setting. Binding seen in cells or lysates may run through a third protein. A yes stands for co-enrichment or nearness to the bait. Other partners may have been found.

By UniProt entry, the sequences of proteins in these tests, tags left out. Residues count along the entry.
UniProt O60260: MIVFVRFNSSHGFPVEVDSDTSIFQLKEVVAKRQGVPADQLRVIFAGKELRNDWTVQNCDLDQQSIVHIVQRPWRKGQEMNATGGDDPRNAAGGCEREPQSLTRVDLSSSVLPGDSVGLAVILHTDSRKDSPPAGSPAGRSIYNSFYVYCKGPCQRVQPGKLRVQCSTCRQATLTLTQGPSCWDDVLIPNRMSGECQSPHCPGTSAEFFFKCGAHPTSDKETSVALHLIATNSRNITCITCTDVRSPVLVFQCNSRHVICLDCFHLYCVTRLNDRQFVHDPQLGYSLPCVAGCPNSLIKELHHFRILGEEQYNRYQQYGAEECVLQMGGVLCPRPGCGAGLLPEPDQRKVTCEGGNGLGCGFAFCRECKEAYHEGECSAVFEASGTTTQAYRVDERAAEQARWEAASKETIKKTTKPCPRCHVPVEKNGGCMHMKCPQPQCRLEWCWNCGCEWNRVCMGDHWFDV
UniProt P61604: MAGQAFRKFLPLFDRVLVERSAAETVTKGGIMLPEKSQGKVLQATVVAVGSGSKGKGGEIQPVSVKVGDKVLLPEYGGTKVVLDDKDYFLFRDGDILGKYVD
UniProt P62258: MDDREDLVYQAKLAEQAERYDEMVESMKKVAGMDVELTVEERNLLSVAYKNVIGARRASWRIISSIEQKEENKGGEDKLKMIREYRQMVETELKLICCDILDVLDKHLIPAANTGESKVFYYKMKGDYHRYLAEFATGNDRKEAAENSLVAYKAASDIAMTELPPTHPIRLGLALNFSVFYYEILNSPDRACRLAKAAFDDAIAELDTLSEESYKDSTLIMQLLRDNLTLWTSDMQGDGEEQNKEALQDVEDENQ
UniProt P63104: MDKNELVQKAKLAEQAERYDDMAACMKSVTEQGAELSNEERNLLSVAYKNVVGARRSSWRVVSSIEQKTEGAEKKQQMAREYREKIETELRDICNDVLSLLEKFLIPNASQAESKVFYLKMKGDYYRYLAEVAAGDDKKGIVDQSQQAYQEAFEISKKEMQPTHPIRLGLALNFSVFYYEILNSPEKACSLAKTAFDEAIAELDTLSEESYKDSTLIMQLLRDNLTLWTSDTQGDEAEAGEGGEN
UniProt Q92688: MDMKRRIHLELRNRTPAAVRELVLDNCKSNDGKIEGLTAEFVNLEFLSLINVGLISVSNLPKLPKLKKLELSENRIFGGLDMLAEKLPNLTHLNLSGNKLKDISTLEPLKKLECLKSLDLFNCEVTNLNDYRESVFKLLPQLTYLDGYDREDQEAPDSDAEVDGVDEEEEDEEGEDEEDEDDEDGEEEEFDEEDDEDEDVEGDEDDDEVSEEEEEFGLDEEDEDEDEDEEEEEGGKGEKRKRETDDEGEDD
UniProt Q01518: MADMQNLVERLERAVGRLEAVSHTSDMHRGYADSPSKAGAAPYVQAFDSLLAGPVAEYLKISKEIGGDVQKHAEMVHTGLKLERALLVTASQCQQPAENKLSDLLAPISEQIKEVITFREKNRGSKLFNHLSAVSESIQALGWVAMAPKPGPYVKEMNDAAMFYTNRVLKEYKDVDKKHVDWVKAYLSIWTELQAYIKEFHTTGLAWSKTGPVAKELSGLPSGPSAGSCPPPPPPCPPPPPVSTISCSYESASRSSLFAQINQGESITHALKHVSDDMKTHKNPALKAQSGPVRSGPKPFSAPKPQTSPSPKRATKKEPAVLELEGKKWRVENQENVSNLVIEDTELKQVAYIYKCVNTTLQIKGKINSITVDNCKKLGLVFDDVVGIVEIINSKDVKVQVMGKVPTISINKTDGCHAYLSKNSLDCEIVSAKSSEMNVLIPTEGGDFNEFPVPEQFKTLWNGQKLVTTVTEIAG
UniProt O00483: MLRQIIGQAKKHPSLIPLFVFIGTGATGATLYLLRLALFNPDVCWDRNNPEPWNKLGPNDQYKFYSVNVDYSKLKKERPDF
UniProt Q86UX7: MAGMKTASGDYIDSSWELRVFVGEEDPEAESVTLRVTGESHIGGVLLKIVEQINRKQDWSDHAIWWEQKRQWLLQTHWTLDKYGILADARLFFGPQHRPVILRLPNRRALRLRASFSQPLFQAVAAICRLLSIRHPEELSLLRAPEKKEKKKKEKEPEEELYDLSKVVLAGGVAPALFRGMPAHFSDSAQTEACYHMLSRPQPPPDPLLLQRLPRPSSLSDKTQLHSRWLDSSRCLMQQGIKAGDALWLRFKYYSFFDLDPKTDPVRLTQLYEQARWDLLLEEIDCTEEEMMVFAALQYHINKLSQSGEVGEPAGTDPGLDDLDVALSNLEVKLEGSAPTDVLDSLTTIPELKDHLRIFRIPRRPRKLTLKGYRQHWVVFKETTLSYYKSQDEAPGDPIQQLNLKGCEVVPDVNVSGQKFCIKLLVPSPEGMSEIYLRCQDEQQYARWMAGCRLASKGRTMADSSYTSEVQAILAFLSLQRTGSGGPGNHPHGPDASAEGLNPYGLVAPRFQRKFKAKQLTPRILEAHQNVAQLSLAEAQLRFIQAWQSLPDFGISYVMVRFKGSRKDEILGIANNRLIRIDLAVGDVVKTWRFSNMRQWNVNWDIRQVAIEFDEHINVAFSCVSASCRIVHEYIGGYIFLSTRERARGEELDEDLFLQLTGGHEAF
UniProt P02671, residues 36-866: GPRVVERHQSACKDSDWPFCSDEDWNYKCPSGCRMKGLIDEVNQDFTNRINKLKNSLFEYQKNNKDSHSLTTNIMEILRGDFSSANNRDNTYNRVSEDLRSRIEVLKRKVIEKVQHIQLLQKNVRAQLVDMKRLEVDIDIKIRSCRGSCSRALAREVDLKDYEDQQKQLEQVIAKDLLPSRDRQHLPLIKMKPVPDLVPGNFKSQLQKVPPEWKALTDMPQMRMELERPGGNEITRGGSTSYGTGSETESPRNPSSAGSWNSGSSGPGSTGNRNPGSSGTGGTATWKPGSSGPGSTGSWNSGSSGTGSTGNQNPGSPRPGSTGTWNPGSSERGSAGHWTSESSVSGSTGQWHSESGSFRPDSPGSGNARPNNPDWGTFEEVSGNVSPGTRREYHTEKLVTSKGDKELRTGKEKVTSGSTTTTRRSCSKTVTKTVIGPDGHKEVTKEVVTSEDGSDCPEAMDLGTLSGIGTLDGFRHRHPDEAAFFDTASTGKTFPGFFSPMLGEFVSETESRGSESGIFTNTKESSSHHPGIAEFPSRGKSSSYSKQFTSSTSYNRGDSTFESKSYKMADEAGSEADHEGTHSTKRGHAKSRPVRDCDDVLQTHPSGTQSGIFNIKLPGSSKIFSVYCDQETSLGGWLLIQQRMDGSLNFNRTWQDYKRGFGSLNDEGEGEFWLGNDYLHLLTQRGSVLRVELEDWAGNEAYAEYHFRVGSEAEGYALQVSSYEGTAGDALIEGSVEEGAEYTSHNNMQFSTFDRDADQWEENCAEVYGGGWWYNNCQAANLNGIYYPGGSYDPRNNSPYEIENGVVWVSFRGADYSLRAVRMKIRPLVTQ
UniProt P02751, residues 32-2477: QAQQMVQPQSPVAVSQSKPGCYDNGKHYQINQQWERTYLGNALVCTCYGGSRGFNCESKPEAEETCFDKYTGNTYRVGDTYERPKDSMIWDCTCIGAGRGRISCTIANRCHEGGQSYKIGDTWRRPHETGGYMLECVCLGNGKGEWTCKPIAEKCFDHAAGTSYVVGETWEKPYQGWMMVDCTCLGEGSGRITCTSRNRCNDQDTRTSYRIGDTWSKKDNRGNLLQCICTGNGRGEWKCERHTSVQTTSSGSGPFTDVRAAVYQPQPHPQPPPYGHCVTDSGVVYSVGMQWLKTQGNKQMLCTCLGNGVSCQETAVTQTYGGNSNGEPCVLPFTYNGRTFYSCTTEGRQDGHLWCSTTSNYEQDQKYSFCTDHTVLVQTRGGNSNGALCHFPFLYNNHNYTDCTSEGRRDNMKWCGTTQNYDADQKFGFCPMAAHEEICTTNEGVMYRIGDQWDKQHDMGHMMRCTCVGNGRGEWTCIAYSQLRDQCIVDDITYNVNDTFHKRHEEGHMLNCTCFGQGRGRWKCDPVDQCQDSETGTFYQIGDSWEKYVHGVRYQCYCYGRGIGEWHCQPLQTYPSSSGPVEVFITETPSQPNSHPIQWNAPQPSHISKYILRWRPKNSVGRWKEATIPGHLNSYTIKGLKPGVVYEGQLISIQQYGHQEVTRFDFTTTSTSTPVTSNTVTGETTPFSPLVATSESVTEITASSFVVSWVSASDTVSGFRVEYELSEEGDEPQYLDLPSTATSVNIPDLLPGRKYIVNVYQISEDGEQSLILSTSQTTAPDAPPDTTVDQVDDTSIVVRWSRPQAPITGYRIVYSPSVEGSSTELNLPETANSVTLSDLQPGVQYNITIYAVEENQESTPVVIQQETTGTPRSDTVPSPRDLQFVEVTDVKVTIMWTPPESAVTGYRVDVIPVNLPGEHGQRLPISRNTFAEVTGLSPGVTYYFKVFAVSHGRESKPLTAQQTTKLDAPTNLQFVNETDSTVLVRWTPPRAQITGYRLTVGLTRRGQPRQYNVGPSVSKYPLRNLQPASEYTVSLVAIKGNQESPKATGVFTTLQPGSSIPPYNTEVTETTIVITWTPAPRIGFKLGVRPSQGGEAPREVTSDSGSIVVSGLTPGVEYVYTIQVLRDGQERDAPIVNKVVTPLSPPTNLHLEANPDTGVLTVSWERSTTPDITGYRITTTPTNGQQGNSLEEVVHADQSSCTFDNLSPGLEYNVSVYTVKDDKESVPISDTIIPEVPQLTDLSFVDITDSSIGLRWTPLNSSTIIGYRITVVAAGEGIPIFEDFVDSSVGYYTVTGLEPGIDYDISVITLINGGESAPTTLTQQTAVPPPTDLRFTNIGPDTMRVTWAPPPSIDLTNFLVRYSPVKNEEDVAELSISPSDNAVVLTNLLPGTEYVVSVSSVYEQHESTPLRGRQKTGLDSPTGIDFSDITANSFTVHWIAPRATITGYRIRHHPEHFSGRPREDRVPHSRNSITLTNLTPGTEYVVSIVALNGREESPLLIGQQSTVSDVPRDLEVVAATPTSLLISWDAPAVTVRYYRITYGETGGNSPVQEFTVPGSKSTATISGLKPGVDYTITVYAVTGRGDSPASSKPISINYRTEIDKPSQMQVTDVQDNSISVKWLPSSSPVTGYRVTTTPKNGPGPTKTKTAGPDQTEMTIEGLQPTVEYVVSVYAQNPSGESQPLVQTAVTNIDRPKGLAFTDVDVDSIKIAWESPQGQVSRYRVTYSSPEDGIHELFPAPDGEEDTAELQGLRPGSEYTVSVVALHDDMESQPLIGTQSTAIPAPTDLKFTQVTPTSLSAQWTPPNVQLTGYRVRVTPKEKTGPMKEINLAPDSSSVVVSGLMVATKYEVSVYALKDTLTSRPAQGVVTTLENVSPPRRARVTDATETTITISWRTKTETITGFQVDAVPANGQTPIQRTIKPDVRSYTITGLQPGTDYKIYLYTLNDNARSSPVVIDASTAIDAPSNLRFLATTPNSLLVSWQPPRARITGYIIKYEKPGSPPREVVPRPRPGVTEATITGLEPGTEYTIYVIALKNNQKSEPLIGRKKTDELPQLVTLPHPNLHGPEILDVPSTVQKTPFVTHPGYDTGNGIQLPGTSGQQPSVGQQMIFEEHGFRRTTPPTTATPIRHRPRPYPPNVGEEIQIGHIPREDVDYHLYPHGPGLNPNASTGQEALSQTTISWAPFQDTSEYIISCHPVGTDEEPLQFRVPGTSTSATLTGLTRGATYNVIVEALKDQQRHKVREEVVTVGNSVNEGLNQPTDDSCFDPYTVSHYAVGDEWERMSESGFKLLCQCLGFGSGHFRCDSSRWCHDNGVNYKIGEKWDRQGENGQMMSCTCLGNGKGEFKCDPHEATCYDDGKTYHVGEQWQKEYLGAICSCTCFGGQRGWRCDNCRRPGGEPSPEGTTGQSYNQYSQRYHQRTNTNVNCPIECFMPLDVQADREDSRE
UniProt Q13418: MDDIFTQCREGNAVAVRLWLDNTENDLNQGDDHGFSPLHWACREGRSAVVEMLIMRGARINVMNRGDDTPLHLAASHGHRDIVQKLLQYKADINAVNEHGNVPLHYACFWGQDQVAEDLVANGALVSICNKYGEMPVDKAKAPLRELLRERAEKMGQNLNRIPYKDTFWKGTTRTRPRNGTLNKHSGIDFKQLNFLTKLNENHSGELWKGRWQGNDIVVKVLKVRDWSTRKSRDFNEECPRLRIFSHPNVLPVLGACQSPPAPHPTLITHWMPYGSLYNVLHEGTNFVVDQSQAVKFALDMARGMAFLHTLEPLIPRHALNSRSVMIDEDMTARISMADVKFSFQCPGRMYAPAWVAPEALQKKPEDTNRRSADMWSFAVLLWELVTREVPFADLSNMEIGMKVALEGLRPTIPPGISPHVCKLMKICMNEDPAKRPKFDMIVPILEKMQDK
UniProt Q9UI09: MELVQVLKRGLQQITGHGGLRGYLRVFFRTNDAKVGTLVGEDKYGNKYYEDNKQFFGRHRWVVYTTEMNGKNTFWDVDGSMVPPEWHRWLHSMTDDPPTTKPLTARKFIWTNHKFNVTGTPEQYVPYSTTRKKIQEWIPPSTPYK
UniProt O95182: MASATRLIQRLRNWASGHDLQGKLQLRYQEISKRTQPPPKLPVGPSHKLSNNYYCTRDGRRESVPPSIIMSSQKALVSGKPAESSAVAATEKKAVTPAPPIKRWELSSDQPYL

Biological target: Parkin (human (endogenous in platelets)) (UniProt O60260)
Test: affinity purification with mass spectrometry; IP with Parkin-specific antibodies from human DM platelet lysate; silver-stained gel, 10 bands enriched in DM against HC cut out; in-gel trypsin digestion, LC-MS/MS, Mascot search

Row | binding | Substance
1 | binds | 10 kDa heat shock protein, mitochondrial (from UniProt P61604 1-102)
2 | binds | 14-3-3 protein beta/alpha (from UniProt P31946 1-246)
3 | binds | 14-3-3 protein epsilon (from UniProt P62258 1-255)
4 | binds | 14-3-3 protein zeta/delta (from UniProt P63104 1-245)
5 | binds | ATP synthase subunit g, mitochondrial (from UniProt O75964 1-103)
6 | binds | Acidic leucine-rich nuclear phosphoprotein 32 family member B (from UniProt Q92688 1-251)
7 | binds | Adenylyl cyclase-associated protein 1 (from UniProt Q01518 1-475)
8 | binds | Amyloid beta A4 protein (from UniProt P05067 18-770)
9 | binds | Angiopoietin-rrelated protein 5 (from UniProt Q86XS5 26-388)
10 | binds | Antithrombin-III (from UniProt P01008 33-464)
11 | binds | Calreticulin (from UniProt P27797 18-417)
12 | binds | Coagulation factor V (from UniProt P12259 29-2224)
13 | binds | Coagulation factor X (from UniProt P00742 41-488)
14 | binds | Coagulation factor XIII A chain (from UniProt P00488)
15 | binds | Cytochrome c oxidase subunit 5B, mitochondrial (from UniProt P10606 32-129)
16 | binds | Cytochrome c oxidase subunit NDUFA4 (from UniProt O00483 1-81)
17 | binds | DnaJ homolog subfamily A member 2 (from UniProt O60884 1-412)
18 | binds | Dynein light chain 1, cytoplasmic (from UniProt P63167 1-89)

Row | binding | Substance
19 | binds | E3 ubiquitin-protein ligase MYCBP2 (from UniProt O75592 1-4678)
20 | binds | E3 ubiquitin-protein ligase UBR4 (from UniProt Q5T4S7 1-5183)
21 | binds | EMILIN-1 (from UniProt Q9Y6C2 22-1016)
22 | binds | Fermitin family homolog 3 (from UniProt Q86UX7 1-667)
23 | binds | Fibrinogen alpha chain (from UniProt P02671 36-866)
24 | binds | Fibrinogen beta chain (from UniProt P02675 45-491)
25 | binds | Fibrinogen gamma chain (from UniProt P02679 27-453)
26 | binds | Fibronectin (from UniProt P02751 32-2477)
27 | binds | Glutathione S-transferase omega-1 (from UniProt P78417 1-241)
28 | binds | Huntingtin (from UniProt P42858 1-3142)
29 | binds | Importin subunit beta-1 (from UniProt Q14974 1-876)
30 | binds | Integrin alpha-IIb (from UniProt P08514 32-1039)
31 | binds | Integrin beta-1 (from UniProt P05556 21-798)
32 | binds | Integrin beta-3 (from UniProt P05106 27-788)
33 | binds | Integrin-linked protein kinase (from UniProt Q13418 1-452)
34 | binds | NADH dehydrogenase (ubiquinone)1 alpha subcomplex subunit 12 (from UniProt Q9UI09 1-145)
35 | binds | NADH dehydrogenase (ubiquinone) 1 alpha subcomplex subunit 7 (from UniProt O95182 1-113)
